# The campaign covered roughly 340,000 compounds. About 170 (0.05%) were called active. The inconclusive results got no clear call from the source; some entries with a clear call stand among them for comparison. Calls come from the whole dose curve; as a rule, active = well fitted inhibition curve with a large enough effect in the signal ratio, with a control signal flat (not every such curve was filed as active); inconclusive = small, poorly fitted or top-dose-only effect, or effect the other way, or a change in a side signal; inactive = flat fitted curve, though single readings scatter; the % refers to the signal ratio. A potency beside an inconclusive call is a rough fit, not a confirmed value.
# Assay: qHTS Assay to Find Inhibitors of Chronic Active B-Cell Receptor Signaling;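 for activity change, negative = inhibition: plate controls were basal doxycycline-induced cells for no effect and cells given 10 µM MG132 for full effect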
# Conditions: ABC-DLBCL IkBa-CBG/CBR reporter, luminescence ratio (green luciferase fused to IkBa over red control in TMD8 lymphoma cells), 4 h; activity change, negative = inhibition: at 46.1 µM (top of the series)
# Outline: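 Concentration-response series (up to 46 uM) were applied to TMD8 dual-reporter cells for 4 h at 37C with doxycycline. Green/red ratio, after filter-overlap correction, defined %Activity; red signal alone was normalised to basal cells and zero luminescence.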
# Potency is the fitted concentration of half-maximal effect.
Structure (SMILES),"activity change, negative = inhibition",Potency
Cc1noc(C)c1C(=O)NC1=NCCS1,inconclusive: -12.6%,
Cc1nc(N2CCC(C)CC2)c2oc3ccccc3c2n1,inactive,
COCCCN(C(=S)Nc1cc(Cl)cc(Cl)c1)C(C)c1ccncc1 (centres undefined),inactive,
CCN1CCn2c1nc(N1CCOCC1)nc2=O,inconclusive: 1.88%,
COc1cc(C(=O)Nc2ccc(NC(=O)c3ccccc3)nc2)cc(OC)c1OC,inconclusive: -25.4%,
COc1ccc(CNC(=O)c2ccc3nc(-c4ccc(F)cc4)c(-c4ccc(F)cc4)nc3c2)cc1,inconclusive: 1.08%,
CC(C)OC(=O)CC(=O)CSc1nc2c(c(-c3cccs3)c1C#N)CCC2,inconclusive: -7.49%,
O=C(CSc1nc2ccccc2[nH]1)c1ccccc1F,,"inconclusive: 22.4 µM [falling, single point]"
Cc1cc(C(=O)N/N=C/c2ccccc2Br)no1,,"inconclusive: 17.8 µM [falling, partial curve, poor fit]"
Cc1ccc(-c2nc(N)n(C(=O)c3cccs3)n2)cc1,inconclusive: -0.188%,
CCc1cccc(C)c1NC(=O)CN(C)Cc1ccccc1F,inactive,
CCCn1nnnc1SCC(=O)Nc1sc(C)c(C)c1C#N,inconclusive: 3.3%,
CC(=O)c1ccc(N2C(=O)C3C(C2=O)C(C(=O)c2ccc(Cl)cc2)N2CCCC32)cc1 (centres undefined),inactive,
CCCCCCCc1ccc(C2NC(=S)NC3=C2C(=O)c2ccccc23)cc1 (centres undefined),inactive,
COc1cccc(N2CCN(Cc3ncc(-c4ccccc4)o3)CC2)c1,,"inconclusive: 8.91 µM [falling, partial curve, poor fit]"
COC(=O)c1nn(-c2ccccc2)c(Sc2ccc(OC)cc2)c1/C=N/O,,"inconclusive: 14.1 µM [falling, partial curve, poor fit]"
COc1cccc(NC(=O)N2CCN(c3cccc(C)c3)C(C)C2)c1 (centres undefined),,"inconclusive: 6.31 µM [falling, partial curve, poor fit]"
O=C(Nc1ccc(Br)cc1)c1cc([N+](=O)[O-])cc([N+](=O)[O-])c1,inconclusive: -0.3%,
CCOc1ccc(C(=O)NC(Cc2ccccc2)C(=O)OC)cc1 (centres undefined),inactive,
COc1cc(NC(=O)c2ccc(OC)c([N+](=O)[O-])c2)ccc1NC(=O)c1cccs1,inconclusive: 0.653%,
O=C(/C=C/c1cccc(Cl)c1)NCCc1ccccc1,,"inconclusive: 0.58 µM [rising, full curve, poor fit]"
CN(C)S(=O)(=O)c1cccc(NC(=O)c2ccc(S(=O)(=O)N3CCCC3)cc2)c1,inconclusive: 5.85%,
CCOC(=O)c1ccc(Oc2cc(C)nc(SC)n2)cc1,inactive,
CC(C)(C)C(=O)C1=C(O)C(=O)N(Cc2ccccc2)C1c1ccccc1Cl (centres undefined),inactive,
CN1CCC(NC(=O)Nc2ccc(Br)cc2)CC1,inconclusive: 14.9%,
O=S(=O)(c1cccs1)N1CCN(Cc2nc3ccccc3s2)CC1,inconclusive: 22.4%,
O=C(Nc1ccc(S(=O)(=O)N2CCOCC2)cc1)c1cccc([N+](=O)[O-])c1,inconclusive: 0.0817%,

Structure (SMILES),"activity change, negative = inhibition",Potency
Fc1cc(F)c2nc(N3CCCCC3)sc2c1,inconclusive: 12.6%,
Cc1c(C(=O)/C=C/N(C)C)nnn1-c1ccc(Cl)cc1C#N,inconclusive: 6.09%,
Cc1[nH]c2ccccc2c1C(=O)/C=C/c1ccccc1,inconclusive: -19.8%,
CC1(C)Cc2c(c(N3CCOCC3)nc3sc4c(NCc5ccco5)nnnc4c23)CS1,inconclusive: -0.273%,
S=c1nc2c(n[nH]1)c1ccccc1n2CCc1ccccc1,inactive,
Cc1ccc(NC2=NCC(=O)N2Cc2ccccc2)c(C)c1,,"inconclusive: 16.4 µM [falling, partial curve, poor fit]"
CC(C)(C)c1cc(C(=O)NNc2cccc(Cl)c2)n(Cc2ccccc2)n1,inconclusive: 6.84%,
CSc1ncccc1C(=O)Nc1nc2ccc(S(C)(=O)=O)cc2s1,,"inconclusive: 25.1 µM [falling, partial curve]"
Cc1oc2c(Cl)c(Cl)c(O)c(CN(C)C)c2c1C(=O)c1ccc(Cl)cc1,inconclusive: -2.8%,
Cc1cnc(NC(=O)CSc2nnc(-c3ccc(Cl)cc3Cl)n2N)s1,inconclusive: 1.7%,
COc1ccc(-c2cc(C(=O)Nc3c(C)n(C)n(-c4ccccc4)c3=O)no2)cc1OC,inconclusive: -0.589%,
OCC1(Cc2ccc(Cl)cc2)CCN(Cc2ccccc2F)CC1,inactive,
CC(C)(C)OC(=O)N1CCN(CCNC(=O)c2ccccc2)CC1,inactive,
COc1cc(NC(=O)c2csc(N)n2)cc(C(=O)Nc2cccc(C(F)(F)F)c2)c1,,"inconclusive: 17.8 µM [falling, single point]"
CCOc1ccc(NC(=O)Nc2ccc(Br)cn2)cc1,inconclusive: 14.9%,
Cc1n[nH]c(=S)n(NC(=O)CC(=O)Nn2c(=S)[nH]nc(C)c2=O)c1=O,inactive,
Cc1cc(NC(=O)CSc2nnc(-c3ccc(O)cc3)o2)no1,inconclusive: -8.23%,
CCOc1ccc(S(=O)(=O)NCC2CCCO2)cc1NC(=O)c1ccccc1F (centres undefined),inconclusive: 2.42%,
O=C(Nc1c2c(nn1-c1ccc([N+](=O)[O-])cc1)CS(=O)(=O)C2)c1ccco1,inactive,
COc1cccc(CNC(=O)c2cc(S(=O)(=O)N3CCCCC3)c[nH]2)c1,inactive,
Cc1ccccc1C(=O)Nc1cc(S(=O)(=O)N2CCOCC2)ccc1N1CCN(C)CC1,inconclusive: 4.48%,
COc1ccc(CC(=O)Nc2ccc(-c3nc4ccccc4s3)c(C)c2)cc1OC,,"inconclusive: 1 µM [rising, full curve, poor fit]"
CCOc1ccc(S(=O)(=O)Nc2ccc(S(=O)(=O)Nc3cc(OC)ccc3OC)cc2)cc1,inconclusive: 24.1%,
COc1ccccc1N1CCN(C(=O)c2ccc(S(=O)(=O)N3CCCCCC3)cc2)CC1,inconclusive: -7.47%,
COc1ccc(C(=O)CN2C(=O)NC3(CCc4ccccc43)C2=O)c(OC)c1 (centres undefined),inconclusive: -0.255%,
O=C(Nc1ccc([N+](=O)[O-])cc1)Nc1ccc(OC(F)F)c(Cl)c1,inconclusive: 2.48%,
CC(=O)NC(CC(=O)OCC(=O)c1c(N)n(C)c(=O)n(C)c1=O)c1ccccc1 (centres undefined),,"inconclusive: 11.2 µM [activator, partial curve, poor fit]"

# Single entries from the list.
# Entry for S=c1nc2c(n[nH]1)c1ccccc1n2CCc1ccccc1 under activity change, negative = inhibition: inactive
# Entry for CC(=O)NC(CC(=O)OCC(=O)c1c(N)n(C)c(=O)n(C)c1=O)c1ccccc1 (centres undefined) under Potency: inconclusive: 11.2 µM [activator, partial curve, poor fit]

# (list continues)

Structure (SMILES),"activity change, negative = inhibition",Potency
O=C(Nc1ccc(F)cc1)Nc1sccc1-c1nc2ccccc2s1,inconclusive: 4.15%,
CSc1ccc(C2Nc3cccc4cccc(c34)N2)cc1,inconclusive: -9.67%,
CCOc1ccc(NC(=O)CN(C)C(=O)c2ccc(N3CCCC3)c([N+](=O)[O-])c2)cc1OCC,inconclusive: 4.05%,
Cc1ccc(-c2nc3ncccc3o2)cc1NC(=O)c1cccs1,inconclusive: -15%,
Cc1cc(C2N=C(N)Nc3nc4ccccc4n32)c(C)n1-c1ccccc1Cl (centres undefined),inconclusive: -8.25%,
C=CCc1cccc(/C=N/NC(=O)CNc2cccc3ccccc23)c1O,,"inconclusive: 18.4 µM [falling, single point]"
O=C(NCC1CCCO1)C(=O)N/N=C/c1ccccc1C(=O)O (centres undefined),,"inconclusive: 11.2 µM [falling, partial curve]"
CCOC(=O)c1sc(NC(=O)c2cc(-c3ccccc3C)nc3ccccc23)c(C#N)c1C,inconclusive: 11.3%,
CCOC(=O)N1CCN(C(=O)C2c3cc(OC)c(OC)cc3C(=O)N3CCc4ccccc4C23)CC1 (centres undefined),inconclusive: 11%,
CCOC(=O)c1ccc2c(c1)NCc1cccc(OC)c1O2,,"inconclusive: 31.6 µM [rising, partial curve]"
C/C(CC(=O)Nc1cc(C)ccn1)=N\NC(=O)C(=O)Nc1cccc(C)c1,,"inconclusive: 25.9 µM [falling, single point]"
O=C1NC2=C(C(=O)CCC2)C(c2ccc3ncccc3c2)N1 (centres undefined),inconclusive: 2.64%,
CCOn1c(=O)c(-c2cccs2)[n+]([O-])c2ccccc21,inconclusive: 20.8%,
O=C(O)CCCNc1cc(N2CCN(C(=O)c3ccco3)CC2)c2noc3c2c1C(=O)c1ccccc1-3,inconclusive: -11.6%,
CCc1ccc([C@H]2C(C(=O)O)=C[C@@H](C(C)(C)C)N2S(=O)(=O)c2ccc(C)cc2)cc1,inactive,
O=C(Nc1ccccc1)C1=C(c2ccccc2)S(=O)(=O)CCS1(=O)=O,inconclusive: 11.5%,
Cc1ccc(S(=O)(=O)N2CCC(C(=O)N[C@@H](C)C(=O)Nc3ccc(F)cc3)CC2)cc1,inconclusive: -14%,
O=C(CSc1nc(-c2ccccc2)c(-c2ccccc2)[nH]1)NCCN1C(=O)CSC1=O,,"inconclusive: 17.8 µM [falling, single point]"
Cc1nn2c(N)c(C#N)cnc2c1-c1ccccc1,inconclusive: 11.7%,
Cc1cc(C)nc(N/N=C/c2ccco2)n1,inconclusive: 0.0639%,
O=C(Oc1ccc(/C=N/NC(=O)c2ccccc2O)cc1)c1ccccc1,,"inconclusive: 5.8 µM [rising, full curve, poor fit]"
COc1cccc(NC(=O)c2ccc(S(=O)(=O)NCc3cccnc3)cc2)c1,inconclusive: -11%,
CCCn1c(CN2CCN(C(=O)OCC)CC2)nc2cc(NC(=O)CC)ccc21,,"inconclusive: 35.5 µM [falling, partial curve, poor fit]"
CCCNC(=O)c1cn(CC)c2cc(N3CCN(C(=O)c4ccco4)CC3)c(F)cc2c1=O,inactive,
CCOc1cccc2sc(N(Cc3cccnc3)C(=O)c3ccc(C#N)cc3)nc12,,"inconclusive: 12.6 µM [rising, single point]"
